From paper PMC7819943, “Rice protein-binding microarrays: a tool to detect cis-acting elements near promoter regions in rice”
This is one part of the list.

Chains of the proteins cited; added tags and fusions are not shown.
UniProt Q0JBA9, entry or part of it: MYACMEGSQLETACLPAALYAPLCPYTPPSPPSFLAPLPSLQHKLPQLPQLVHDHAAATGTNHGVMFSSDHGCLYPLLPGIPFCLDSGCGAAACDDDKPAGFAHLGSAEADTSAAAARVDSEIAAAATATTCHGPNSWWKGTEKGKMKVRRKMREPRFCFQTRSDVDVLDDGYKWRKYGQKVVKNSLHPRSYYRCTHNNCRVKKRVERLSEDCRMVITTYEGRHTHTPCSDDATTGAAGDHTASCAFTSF

Target: OsWRKY34 (Oryza sativa, UniProt Q0JBA9 1-250)
Assay: protein-binding microarray (RPBM); PBS, 2% BSA, 51.3 ng/ul salmon testes DNA, 50 uM zinc acetate, 200 nM TF, 25 C, 1 h; high values mean tight binding
Settings: protein: recombinant; tags: N-terminal polyhistidine and DsRed monomer fusion (pET32a); label: CyDye5-dUTP incorporated in the synthesized complementary strand; 3' TTTTT single-stranded linker to array surface; dsDNA, one strand shown
In short: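 An Axon 4000B scanner gave the binding signal as per-feature fluorescence intensity in arbitrary units. This followed washing of a custom Agilent array that had been incubated for 1 h at 25 °C with 200 nM protein in PBS, 2% BSA, salmon testes DNA and 50 µM zinc acetate. The proteins were transcription factors fused at the N-terminus to polyhistidine and DsRed, expressed in E. coli BL21-CodonPlus and purified on Ni–NTA.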

Sequence	binding signal
CCCAGTACATAATACCTCCACGGTACTCGTACTCGTACTCCGGAGTCACCTAGTGCAG	9750 fluorescence intensity (a.u.)
CTCGCTAGCCCTCTGAACCTTGCAGTTTGTTGTTTGCACCCGGAGTCACCTAGTGCAG	13600 fluorescence intensity (a.u.)
GGAATTGGCCACAAAAGCTACTGCTAACTACATTCACCTCCGGAGTCACCTAGTGCAG	9760 fluorescence intensity (a.u.)
ACTTTGCCAATTTGCCAGCTACCGGTCACCTTTGTCTTCTCGGAGTCACCTAGTGCAG	12000 fluorescence intensity (a.u.)
CATTCGGCGGGGCGGAGGTGGGGCGCGCTCGCCGGAGATGCGGAGTCACCTAGTGCAG	8310 fluorescence intensity (a.u.)
GAGATCTGCTGCATCGGTGGTAGCAGTGCCACCTTTTTCTCGGAGTCACCTAGTGCAG	9640 fluorescence intensity (a.u.)
CTTTCATCCCCGCCGCCGGTCGCCGCTTGTGCTGCCGCTCCGGAGTCACCTAGTGCAG	9830 fluorescence intensity (a.u.)
CAAGTGGTTAGGAGGGGTGTACTGAACTGAGAACTGTCCCCGGAGTCACCTAGTGCAG	8040 fluorescence intensity (a.u.)
GTATCACCTCTCATGCATTTTTCTGGACATATTACAATATCGGAGTCACCTAGTGCAG	10500 fluorescence intensity (a.u.)
TCCGTCGCTGTTTCTGTTTGGGTTTAACCGTTTGGTAGCTCGGAGTCACCTAGTGCAG	9660 fluorescence intensity (a.u.)
GCCTTCGTCGCCGCTCCAACTTCTTCGACATTAACTACAACGGAGTCACCTAGTGCAG	13100 fluorescence intensity (a.u.)
ACCAAGCTGCAGATTCTCAACCTCGCCTACAACCAGCTGTCGGAGTCACCTAGTGCAG	8360 fluorescence intensity (a.u.)
CCTCGAAAGCGGTAGGGTCAATATATTTTCATCGGTACAACGGAGTCACCTAGTGCAG	8910 fluorescence intensity (a.u.)
TGTCTCCAATTTTGTGGCGGCTACGATACACCGCTTGTTTCGGAGTCACCTAGTGCAG	9530 fluorescence intensity (a.u.)
GTCAACCAAATCTACCGGCTGATCAGTGATCACACGCTTTCGGAGTCACCTAGTGCAG	8460 fluorescence intensity (a.u.)
GGTACTACTATATCTTCTGTCGCTTTCTCGAATAGGAAATCGGAGTCACCTAGTGCAG	9520 fluorescence intensity (a.u.)
TGCACTTCCATTTCACCTCACCTCCTCTCCATCTCTCCATCGGAGTCACCTAGTGCAG	9120 fluorescence intensity (a.u.)
ATTAGGTTTGATACCTGACCTGTATGATGCGTTTCTACCACGGAGTCACCTAGTGCAG	10500 fluorescence intensity (a.u.)
TTTTATTCTACTTATTACTCCATATACTAGCTAGCATCATCGGAGTCACCTAGTGCAG	8080 fluorescence intensity (a.u.)
AGTTTGTAATCAAATCAATTGTTCCATTTAGTCTTTGATTCGGAGTCACCTAGTGCAG	8590 fluorescence intensity (a.u.)
GGATTTGTCTTTTTTATTTCTTAATATGTAGCTTATGTTTCGGAGTCACCTAGTGCAG	10700 fluorescence intensity (a.u.)

Sequence	binding signal
TTTGCCGTTTCTCTTTGACCAAGGTCAACCGAACTGCGGTCGGAGTCACCTAGTGCAG	11000 fluorescence intensity (a.u.)
CACTGTTCGTGCACACTGGCCGTCTTCTTCTTCCTCCAGCCGGAGTCACCTAGTGCAG	8230 fluorescence intensity (a.u.)
TAACATGTAGGGTCCACCTCGGCTCCACCATTTCTAATAACGGAGTCACCTAGTGCAG	9290 fluorescence intensity (a.u.)
GAGAGTATTTGGAACACGTCATCACTTCGTCCCTTATTATCGGAGTCACCTAGTGCAG	10000 fluorescence intensity (a.u.)
ATCCGGCACAGATATCCCCTTTGATGTAGAAATCCTCTTCCGGAGTCACCTAGTGCAG	8880 fluorescence intensity (a.u.)
CACCTAAGGAATGTACTCCGTACTTATCACTAGACCACTTCGGAGTCACCTAGTGCAG	9190 fluorescence intensity (a.u.)
TTCTATGGTTGGTTCTTGTGTGTCCCTAAGCGTGAAAAAACGGAGTCACCTAGTGCAG	10200 fluorescence intensity (a.u.)
TCCCTGTTTTTTTGCTGATTTATTTTTTATAGGTTCAATTCGGAGTCACCTAGTGCAG	8420 fluorescence intensity (a.u.)
TGGGGTGGAGGCAGGGTTCCTCTTGACGAACTGGCCAGCACGGAGTCACCTAGTGCAG	8580 fluorescence intensity (a.u.)
GGGGCTTCATGACTAGTCTAACCAATTGCAGCAATATGATCGGAGTCACCTAGTGCAG	8630 fluorescence intensity (a.u.)
AGTCTATCTCTCTCATCCGATTCGTGTATTTTTTCTGCGCCGGAGTCACCTAGTGCAG	12200 fluorescence intensity (a.u.)
ACCCAATGGCAATCTTGCAAGAACTAACCTTTGCCACCACCGGAGTCACCTAGTGCAG	8200 fluorescence intensity (a.u.)
TATACTACTAGCAGCAGCGTCTTCCTCCTCGTCGTCTTCACGGAGTCACCTAGTGCAG	8600 fluorescence intensity (a.u.)
CTGTTGCACGTGCTTTGTTCACCGAAGGTTCCAGCTACTCCGGAGTCACCTAGTGCAG	8990 fluorescence intensity (a.u.)
GTGTCAAGGTCTACCGCTAGCGATTGTATTTATGGGAAGCCGGAGTCACCTAGTGCAG	8380 fluorescence intensity (a.u.)
TTTACTGACCTACAAAACCATATGGTTAAAACATCACTTCCGGAGTCACCTAGTGCAG	8880 fluorescence intensity (a.u.)
ACCTCGAATGAAATATTTTCTTTTTGTGATTTTTGTCGGTCGGAGTCACCTAGTGCAG	9330 fluorescence intensity (a.u.)
CCCGCCGCCGAATCATCGCCGTCGTTCCTCTGCCTCGTGGCGGAGTCACCTAGTGCAG	9420 fluorescence intensity (a.u.)
ACCTGTCAGCGCCCACAACTGCTCGCTCCGTCCTCCAAAGCGGAGTCACCTAGTGCAG	12400 fluorescence intensity (a.u.)
AAATTCTTTGCTTTGTTGTTTTCTCAACATCTTATTGCTTCGGAGTCACCTAGTGCAG	9090 fluorescence intensity (a.u.)
AACATCGCACAGTCAGTCACACACCCACACACCGGCGAGCCGGAGTCACCTAGTGCAG	9250 fluorescence intensity (a.u.)

4 neighbouring entries from above, for reference:
Sequence	binding signal
GCCTTCGTCGCCGCTCCAACTTCTTCGACATTAACTACAACGGAGTCACCTAGTGCAG	13100 fluorescence intensity (a.u.)
ACCAAGCTGCAGATTCTCAACCTCGCCTACAACCAGCTGTCGGAGTCACCTAGTGCAG	8360 fluorescence intensity (a.u.)
CCTCGAAAGCGGTAGGGTCAATATATTTTCATCGGTACAACGGAGTCACCTAGTGCAG	8910 fluorescence intensity (a.u.)
TGTCTCCAATTTTGTGGCGGCTACGATACACCGCTTGTTTCGGAGTCACCTAGTGCAG	9530 fluorescence intensity (a.u.)
